According to doi:10.1101/676353:
Read-outs that look alike come from different tables or passages of the source. No constants are given. Whether binding was seen depends on the method and setting. Binding seen in cells or lysates may run through a third protein. Some entries that bind do so weakly or less than the wild type.

The chains behind the UniProt entries cited, without tags or fusion partners. Where a name states a change or a piece, a line headed by the entry shows the natural chain unless it says otherwise.
UniProt Q92841, whole entry: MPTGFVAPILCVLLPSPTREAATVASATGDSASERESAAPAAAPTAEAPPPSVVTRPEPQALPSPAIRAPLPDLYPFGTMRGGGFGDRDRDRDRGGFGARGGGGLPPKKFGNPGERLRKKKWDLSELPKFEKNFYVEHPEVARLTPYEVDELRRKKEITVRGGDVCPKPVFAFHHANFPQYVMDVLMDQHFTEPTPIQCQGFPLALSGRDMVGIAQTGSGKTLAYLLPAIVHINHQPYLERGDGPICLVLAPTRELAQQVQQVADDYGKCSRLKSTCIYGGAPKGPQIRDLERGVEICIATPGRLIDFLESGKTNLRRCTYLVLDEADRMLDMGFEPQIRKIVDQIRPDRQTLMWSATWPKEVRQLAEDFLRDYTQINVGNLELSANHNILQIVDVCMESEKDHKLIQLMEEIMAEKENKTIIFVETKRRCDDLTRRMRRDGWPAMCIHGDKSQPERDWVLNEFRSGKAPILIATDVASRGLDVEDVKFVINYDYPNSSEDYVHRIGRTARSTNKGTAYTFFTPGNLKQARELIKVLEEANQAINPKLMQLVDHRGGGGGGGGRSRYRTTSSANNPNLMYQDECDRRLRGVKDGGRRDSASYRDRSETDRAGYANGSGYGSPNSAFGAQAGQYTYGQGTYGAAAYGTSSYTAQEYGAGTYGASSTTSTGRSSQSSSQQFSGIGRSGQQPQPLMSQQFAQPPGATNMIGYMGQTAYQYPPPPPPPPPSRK

Legend:
Test in all cases: co-IP
[1] = molecular target: DDX17 (endogenous, isoforms p72 and p82) (human (endogenous in 293T-LTR-GFP)) (UniProt Q92841)
[2] = molecular target: TAX of HTLV-1 (wild type) (HTLV-1) (UniProt P03409)
[3] = molecular target: TAX mutated form M22 (G137A, L138S) (HTLV-1) (UniProt P03409)
[4] = molecular target: RELA (endogenous) (human (endogenous in 293T-LTR-GFP)) (UniProt Q04206)
[5] = molecular target: RELA (endogenous) (human (endogenous in 293T-LTR-GFP)) (UniProt Q04206); remark: listed apart in the source
[6] = molecular target: RELA (endogenous) (human (endogenous in 293T-LTR-GFP)) (UniProt Q04206); remark: listed apart in the source

Row | Substance | binding [1] | binding [2] | binding [3] | binding [4] | binding [5] | binding [6]
1 | TAX mutated form M22 (G137A, L138S) (from UniProt P03409 1-353) | no binding |  |  |  |  | 
2 | TAX of HTLV-1 (wild type) (from UniProt P03409 1-353) | binds |  |  |  |  | 
3 | DDX17 (endogenous, isoforms p72 and p82) (from UniProt Q92841 1-729) |  | binds | no binding | binds | binds | binds
4 | RELA (endogenous) (from UniProt Q04206 1-551) | binds | binds | no binding |  |  | 
